Results of single-concentration screens

By UniProt entry, the sequences of proteins in these tests, tags left out. Residues count along the entry.
UniProt A4I591, 1-473: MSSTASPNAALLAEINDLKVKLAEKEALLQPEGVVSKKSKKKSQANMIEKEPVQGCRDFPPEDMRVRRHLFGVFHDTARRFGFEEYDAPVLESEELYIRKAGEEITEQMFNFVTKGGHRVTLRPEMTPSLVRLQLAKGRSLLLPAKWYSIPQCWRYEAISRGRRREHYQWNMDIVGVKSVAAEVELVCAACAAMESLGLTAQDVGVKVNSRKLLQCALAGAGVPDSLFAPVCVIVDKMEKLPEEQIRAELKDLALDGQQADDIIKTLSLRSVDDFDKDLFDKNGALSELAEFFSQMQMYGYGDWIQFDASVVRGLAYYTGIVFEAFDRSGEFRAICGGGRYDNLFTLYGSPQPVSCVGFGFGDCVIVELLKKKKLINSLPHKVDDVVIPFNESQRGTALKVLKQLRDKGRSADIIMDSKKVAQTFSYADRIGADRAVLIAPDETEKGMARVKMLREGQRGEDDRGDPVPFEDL
UniProt P9WNZ1, whole entry: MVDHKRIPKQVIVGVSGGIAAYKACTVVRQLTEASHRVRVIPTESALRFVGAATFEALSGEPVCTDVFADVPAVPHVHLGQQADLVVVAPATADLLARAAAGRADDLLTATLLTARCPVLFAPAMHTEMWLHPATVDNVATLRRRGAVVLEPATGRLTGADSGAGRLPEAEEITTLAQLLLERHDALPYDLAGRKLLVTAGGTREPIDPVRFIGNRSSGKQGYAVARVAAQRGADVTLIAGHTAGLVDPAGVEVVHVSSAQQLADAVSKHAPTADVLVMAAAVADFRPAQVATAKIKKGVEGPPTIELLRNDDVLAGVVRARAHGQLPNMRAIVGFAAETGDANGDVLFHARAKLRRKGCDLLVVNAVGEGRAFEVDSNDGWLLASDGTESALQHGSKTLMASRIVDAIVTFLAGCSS

Results are given as percent effect.
The record does not define 0% and 100%; most values in the screen are far below 50% and negative numbers occur (in some assays of this library far below -100).
The compounds are a random part of those screened.
A dash means the value is not listed here; it may have been measured.

A: 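Histidine-tRNA ligase, Leishmania infantum (UniProt A4I591). Enzyme assay of histidyl-tRNA synthetase; the read-out is not stated. Tested at 30 µM. The record gives no direction; compounds that gave an IC50 in retests scored well above the rest, so higher reads as stronger inhibition. The assay is labelled LdHisRS but filed under L. infantum. About 69,000 compounds were tested under these conditions; 0.6% (about 410) showed 50% or more at least once.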
B: 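Cell assay of Leishmania donovani living inside macrophages; the read-out is not stated. Concentration: 30 µM. The record gives no direction; compounds that gave an IC50 in retests scored well above the rest, so higher reads as stronger inhibition. Size under these conditions: about 69,000 compounds, about 1,000 of them at 50% or above in at least one test.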
C: 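Enzyme assay of CoaBC with a phosphate dye (Biomol Green) read at 650 nm. Target: Coenzyme A biosynthesis protein CoaBC, Mycobacterium tuberculosis (UniProt P9WNZ1). Tested at 30 µM. Direction is inferred from only a few compounds that gave an IC50; most scored high, so higher reads as stronger inhibition. Most strong results did not repeat in a second test. About 67,000 compounds were tested under these conditions; 0.06% (about 40) showed 50% or more at least once.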

Result for Cn1cnc(S(=O)(=O)NCCCN2CCOCC2)c1Cl was A: 4.762%; B: -4.527%; C: 3.915%. With CN(Cc1cc2n(n1)CCCNC2)Cc1ccno1 the screen gave A: 23.94%; B: 18.6%. Cc1cc(N2CCC(N(C)Cc3cccnc3)C2=O)n(C)n1 (stereo not given) read A: 9.677%; B: -19.58%; C: 4.474%. With CC(C)C(=O)NCCNc1nccc(-c2cc(C(=O)O)ccn2)n1 the screen gave A: 19.23%; B: 6.98%; C: 11.3%. Cn1cc(C#N)cc1C(=O)NC1(C#N)CCSCC1 gave A: 11.43%; B: 20.38%. O=C(c1ncc[nH]1)N1CCC(n2cc(-c3ccccn3)nn2)CC1 read A: 8.602%; B: 17.29%; C: -2.211%. c1ccn2c(C3CCCN(c4ncnc5c4CCNC5)C3)nnc2c1 (stereo not given) gave A: 16.42%; B: -1.091%; C: 4.819%. CC(C)c1noc(C(C)N2CCN(Cc3nc4ccccc4[nH]3)CC2)n1 (stereo not given) gave A: 6.202%; B: 18.03%; C: -5.283%.

O=C1CC(c2cccnc2)c2c(sc3c2CCCC3)N1 (stereo not given) read A: 19.54%; B: -5.657%; C: 5.369%. CC(C)NC(=O)C(c1ccccc1)N1CCn2c(nnc2C2CC2)C1 (stereo not given) gave A: -8.511%; B: -9.504%; C: 2.85%. CN(C)CCN(C)C(=O)c1cnc2c(c1)nc(-c1ccccc1Cl)n2C read A: 18.87%; B: 6.499%; C: -6.608%. COc1c(CNC2CCc3cc(F)ccc32)c(C(C)C)nn1C (stereo not given) read A: 0%; B: 15.86%; C: -8.579%. Result for Cc1nn(C)c(N2CCOCC2)c1CNC(c1ccccc1)C1CC1 (stereo not given) was A: 12.39%; B: -58.4%; C: 12.28%. CN(Cc1ccoc1)C(=O)C1CCN(C(=O)C2CCCC2)CC1 gave A: 15.5%; B: -39.17%; C: 7.002%. Result for CCC(NC(=O)C1CC1)c1ccccc1OCC(=O)N1CCCC1 (stereo not given) was A: 13.89%; B: -1.247%; C: -2.105%. Cc1noc(C)c1CN1CCO[C@H]2[C@H](Oc3ncccc3F)CC[C@@H]21 gave A: 12.82%; C: 6.015%.

With CC[C@H](C)[C@H](NC(=O)Cc1csc(-c2cccc(Cl)c2)n1)C(=O)O the screen gave A: 11.65%; B: -26.05%; C: -1.211%. Result for Cc1nnc2n1CCN(C(=O)c1cc(C)n(-c3ccccc3)c1C)C2 was A: 9.649%; B: 20.47%; C: -5.867%.

2 of the entries, repeated:

SMILES,A,B,C
O=C(c1ncc[nH]1)N1CCC(n2cc(-c3ccccn3)nn2)CC1,8.602,17.29,-2.211
Cn1cc(C#N)cc1C(=O)NC1(C#N)CCSCC1,11.43,20.38,-

From ChEMBL document CHEMBL3988442, “University of Dundee, Small-Polar-MMV Screening Library” (2021).